Reference: patent publication US20040063161A1
Results are given in words; binding and its absence hold for the method and conditions named. In cells and extracts the contact can be indirect. Some entries that bind do so weakly or less than the wild type.

Sequences of proteins named here, by UniProt entry; tags and fusion partners are left off. A change or cut given only in a name is not applied to a line headed by its entry. Residues count along the entry.
UniProt P56817, residues 46-501: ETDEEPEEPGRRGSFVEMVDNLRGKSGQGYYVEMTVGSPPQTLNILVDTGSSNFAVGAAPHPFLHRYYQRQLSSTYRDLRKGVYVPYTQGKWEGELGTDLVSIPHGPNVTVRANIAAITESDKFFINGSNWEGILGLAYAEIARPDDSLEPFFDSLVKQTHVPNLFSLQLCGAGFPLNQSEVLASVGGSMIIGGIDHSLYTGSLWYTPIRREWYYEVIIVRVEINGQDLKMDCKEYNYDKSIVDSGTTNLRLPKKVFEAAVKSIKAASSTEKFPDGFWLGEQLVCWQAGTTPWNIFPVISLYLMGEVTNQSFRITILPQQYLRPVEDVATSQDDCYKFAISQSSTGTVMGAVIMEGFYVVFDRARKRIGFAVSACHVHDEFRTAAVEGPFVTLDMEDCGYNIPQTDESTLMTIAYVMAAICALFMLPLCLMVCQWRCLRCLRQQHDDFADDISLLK
UniProt O95197: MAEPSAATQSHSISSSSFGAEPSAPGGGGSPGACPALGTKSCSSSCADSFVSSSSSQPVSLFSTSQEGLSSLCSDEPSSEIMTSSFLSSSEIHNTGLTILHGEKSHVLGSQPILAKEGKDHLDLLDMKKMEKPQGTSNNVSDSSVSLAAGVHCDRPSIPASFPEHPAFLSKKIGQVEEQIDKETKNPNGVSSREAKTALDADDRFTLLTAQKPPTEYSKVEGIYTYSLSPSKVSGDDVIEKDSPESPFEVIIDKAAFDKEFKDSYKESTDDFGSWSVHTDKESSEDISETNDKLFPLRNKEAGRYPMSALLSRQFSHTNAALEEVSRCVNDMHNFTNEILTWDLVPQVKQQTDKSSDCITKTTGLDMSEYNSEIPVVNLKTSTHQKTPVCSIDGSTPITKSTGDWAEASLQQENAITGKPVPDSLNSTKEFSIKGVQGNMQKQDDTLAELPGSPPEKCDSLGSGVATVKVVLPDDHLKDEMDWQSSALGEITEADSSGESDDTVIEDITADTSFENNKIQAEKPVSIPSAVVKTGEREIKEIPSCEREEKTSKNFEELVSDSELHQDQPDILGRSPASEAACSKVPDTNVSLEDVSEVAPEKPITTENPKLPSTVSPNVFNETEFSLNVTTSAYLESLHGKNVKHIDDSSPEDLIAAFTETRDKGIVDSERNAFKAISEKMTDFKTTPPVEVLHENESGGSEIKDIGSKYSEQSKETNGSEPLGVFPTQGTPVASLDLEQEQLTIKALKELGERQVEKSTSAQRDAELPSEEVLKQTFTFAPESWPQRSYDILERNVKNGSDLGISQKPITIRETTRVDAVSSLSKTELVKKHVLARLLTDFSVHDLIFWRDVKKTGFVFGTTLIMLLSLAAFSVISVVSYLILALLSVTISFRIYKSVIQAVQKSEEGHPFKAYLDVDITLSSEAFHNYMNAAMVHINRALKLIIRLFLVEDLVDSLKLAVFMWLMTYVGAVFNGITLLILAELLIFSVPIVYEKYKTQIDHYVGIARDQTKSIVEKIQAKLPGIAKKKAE

How the values were obtained:
[1] = biological target: HA-tagged BACE1 (UniProt P56817); experiment: co-immunoprecipitation with anti-HA antibody from HEK 293 cells expressing HA-tagged BACE1
[2] = biological target: HA-tagged BACE1 (UniProt P56817); experiment: co-immunoprecipitation with anti-HA antibody from cells transfected with HA-tagged BACE1; gel bands sequenced
[3] = biological target: HA-tagged BACE1 (UniProt P56817); experiment: co-immunoprecipitation with anti-HA antibody and Western blot with anti-myc antibody; reciprocal immunoprecipitation with anti-myc antibody

| binding [1] | binding [2] | binding [3] | Substance |
| --- | --- | --- | --- |
| binds | binds |  | endogenous RTN 3 (from UniProt O95197 2-1032) |
|  |  | binds | RTN 3 fused to His-Myc tag at the C-terminus (from UniProt O95197 2-1032) |
